Test results published in PMC2211465.
Results are given in words; binding and its absence hold for the method and conditions named. Binding seen in cells or lysates may run through a third protein. Some entries that bind do so weakly or less than the wild type. Where a sequence is shown, tags or fusion partners need not be part of it.

Amino acid sequences for entries named in this document (tags omitted).
UniProt O35625: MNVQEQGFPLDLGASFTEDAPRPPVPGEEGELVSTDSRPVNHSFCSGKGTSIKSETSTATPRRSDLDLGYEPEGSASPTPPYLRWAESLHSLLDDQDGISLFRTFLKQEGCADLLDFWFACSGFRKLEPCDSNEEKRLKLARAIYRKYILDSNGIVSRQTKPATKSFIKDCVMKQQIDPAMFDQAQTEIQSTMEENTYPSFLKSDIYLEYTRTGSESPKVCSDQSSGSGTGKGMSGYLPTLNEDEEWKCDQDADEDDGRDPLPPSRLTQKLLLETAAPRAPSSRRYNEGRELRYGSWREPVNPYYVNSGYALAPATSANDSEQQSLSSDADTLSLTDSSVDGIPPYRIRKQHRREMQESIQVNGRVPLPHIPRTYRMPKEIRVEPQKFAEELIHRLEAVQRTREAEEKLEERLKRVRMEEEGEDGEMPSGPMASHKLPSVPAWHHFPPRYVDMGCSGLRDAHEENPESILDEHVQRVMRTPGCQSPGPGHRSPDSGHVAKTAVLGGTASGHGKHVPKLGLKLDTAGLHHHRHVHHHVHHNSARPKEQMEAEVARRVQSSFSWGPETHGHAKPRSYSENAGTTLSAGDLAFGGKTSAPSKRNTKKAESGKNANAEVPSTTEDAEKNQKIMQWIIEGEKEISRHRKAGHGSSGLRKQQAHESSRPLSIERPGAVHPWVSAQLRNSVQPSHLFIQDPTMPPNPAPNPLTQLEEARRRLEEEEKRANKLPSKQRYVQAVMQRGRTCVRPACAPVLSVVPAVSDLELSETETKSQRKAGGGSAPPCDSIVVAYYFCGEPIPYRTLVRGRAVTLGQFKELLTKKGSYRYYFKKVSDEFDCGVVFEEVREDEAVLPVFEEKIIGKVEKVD
UniProt P35222: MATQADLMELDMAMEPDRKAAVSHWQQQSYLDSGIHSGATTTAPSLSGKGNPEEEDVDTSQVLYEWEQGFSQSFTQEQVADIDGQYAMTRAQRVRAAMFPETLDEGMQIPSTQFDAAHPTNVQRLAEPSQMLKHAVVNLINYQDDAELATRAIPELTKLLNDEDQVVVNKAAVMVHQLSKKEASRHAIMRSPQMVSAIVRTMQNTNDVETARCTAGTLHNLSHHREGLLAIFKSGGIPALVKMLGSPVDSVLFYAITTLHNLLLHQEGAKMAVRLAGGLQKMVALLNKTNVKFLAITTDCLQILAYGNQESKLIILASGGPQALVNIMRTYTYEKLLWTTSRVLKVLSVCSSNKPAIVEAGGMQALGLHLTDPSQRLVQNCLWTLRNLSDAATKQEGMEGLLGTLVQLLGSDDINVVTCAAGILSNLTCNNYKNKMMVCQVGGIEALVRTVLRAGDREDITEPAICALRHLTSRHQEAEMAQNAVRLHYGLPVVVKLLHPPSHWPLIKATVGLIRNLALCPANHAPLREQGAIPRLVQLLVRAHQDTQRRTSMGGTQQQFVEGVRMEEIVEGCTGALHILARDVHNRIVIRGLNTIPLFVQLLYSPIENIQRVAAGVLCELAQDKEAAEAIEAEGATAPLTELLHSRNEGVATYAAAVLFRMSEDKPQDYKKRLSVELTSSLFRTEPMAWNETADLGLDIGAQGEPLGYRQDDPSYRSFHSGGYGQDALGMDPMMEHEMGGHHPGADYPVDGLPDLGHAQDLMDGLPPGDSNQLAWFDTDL
UniProt P49841: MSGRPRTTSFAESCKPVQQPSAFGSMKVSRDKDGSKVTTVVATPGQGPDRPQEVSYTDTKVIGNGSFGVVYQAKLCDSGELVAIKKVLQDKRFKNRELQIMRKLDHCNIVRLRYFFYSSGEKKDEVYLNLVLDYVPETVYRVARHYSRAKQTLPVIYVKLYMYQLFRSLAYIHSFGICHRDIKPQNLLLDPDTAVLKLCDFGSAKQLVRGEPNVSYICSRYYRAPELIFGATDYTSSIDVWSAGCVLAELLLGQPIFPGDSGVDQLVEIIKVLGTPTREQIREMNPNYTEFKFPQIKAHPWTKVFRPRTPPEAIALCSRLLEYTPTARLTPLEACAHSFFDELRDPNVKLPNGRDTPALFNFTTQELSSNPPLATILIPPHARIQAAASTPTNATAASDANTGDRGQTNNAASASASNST

T1: Dvl2-Rluc (mouse) (UniProt Q60838)
T1 sequence: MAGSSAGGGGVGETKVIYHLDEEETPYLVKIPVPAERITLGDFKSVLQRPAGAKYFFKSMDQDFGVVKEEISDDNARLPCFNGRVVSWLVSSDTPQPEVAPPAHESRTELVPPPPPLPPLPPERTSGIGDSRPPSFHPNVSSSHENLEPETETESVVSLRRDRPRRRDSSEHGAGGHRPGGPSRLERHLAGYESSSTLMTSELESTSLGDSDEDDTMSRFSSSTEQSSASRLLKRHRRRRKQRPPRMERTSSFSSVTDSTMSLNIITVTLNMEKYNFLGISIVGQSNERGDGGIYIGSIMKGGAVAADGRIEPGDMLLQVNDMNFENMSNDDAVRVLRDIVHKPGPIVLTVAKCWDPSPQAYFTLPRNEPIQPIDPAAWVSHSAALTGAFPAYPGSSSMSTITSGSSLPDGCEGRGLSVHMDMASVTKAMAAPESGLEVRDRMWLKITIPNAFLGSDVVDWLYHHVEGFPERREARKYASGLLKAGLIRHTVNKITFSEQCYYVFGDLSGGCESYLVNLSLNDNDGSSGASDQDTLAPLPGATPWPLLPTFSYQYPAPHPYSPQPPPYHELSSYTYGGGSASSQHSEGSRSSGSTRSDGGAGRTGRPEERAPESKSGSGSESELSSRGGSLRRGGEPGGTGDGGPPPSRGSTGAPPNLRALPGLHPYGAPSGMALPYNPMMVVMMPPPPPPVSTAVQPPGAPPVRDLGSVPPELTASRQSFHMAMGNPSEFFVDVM


Assays:
Axin-Rluc (mouse) = Axin-Rluc (mouse) (UniProt O35625); assay: FRET or BRET; BRET^2 in live HEK 293 cells stably expressing Rfz1, Rluc and GFP2 fusions transiently co-transfected for 48 h; unstimulated or treated with Wnt3a (20 ng/ml) for 15 min (no significant change of the signal); DeepBlue C 5 μM; ratio of 515 nm over 400 nm
Dvl2-Rluc (mouse) = molecular target: T1, Dvl2-Rluc (mouse); assay: as above

binding (Axin-Rluc (mouse))	binding (Dvl2-Rluc (mouse))	Molecule
binds	–	β-catenin-GFP2 (from UniProt P35222 1-781)
binds	binds	GSK3-GFP2 (from UniProt P49841 1-420) (enzyme)
binds	–	Dvl2-GFP2 (protein, UniProt Q60838 1-736) MAGSSAGGGGVGETKVIYHLDEEETPYLVKIPVPAERITLGDFKSVLQRPAGAKYFFKSMDQDFGVVKEEISDDNARLPCFNGRVVSWLVSSDTPQPEVAPPAHESRTELVPPPPPLPPLPPERTSGIGDSRPPSFHPNVSSSHENLEPETETESVVSLRRDRPRRRDSSEHGAGGHRPGGPSRLERHLAGYESSSTLMTSELESTSLGDSDEDDTMSRFSSSTEQSSASRLLKRHRRRRKQRPPRMERTSSFSSVTDSTMSLNIITVTLNMEKYNFLGISIVGQSNERGDGGIYIGSIMKGGAVAADGRIEPGDMLLQVNDMNFENMSNDDAVRVLRDIVHKPGPIVLTVAKCWDPSPQAYFTLPRNEPIQPIDPAAWVSHSAALTGAFPAYPGSSSMSTITSGSSLPDGCEGRGLSVHMDMASVTKAMAAPESGLEVRDRMWLKITIPNAFLGSDVVDWLYHHVEGFPERREARKYASGLLKAGLIRHTVNKITFSEQCYYVFGDLSGGCESYLVNLSLNDNDGSSGASDQDTLAPLPGATPWPLLPTFSYQYPAPHPYSPQPPPYHELSSYTYGGGSASSQHSEGSRSSGSTRSDGGAGRTGRPEERAPESKSGSGSESELSSRGGSLRRGGEPGGTGDGGPPPSRGSTGAPPNLRALPGLHPYGAPSGMALPYNPMMVVMMPPPPPPVSTAVQPPGAPPVRDLGSVPPELTASRQSFHMAMGNPSEFFVDVM
